Experimental data reported in article PMC12310822.

Molecular target: MtHAC-1(126-190), bZIP DNA-binding domain (Myceliophthora thermophila) (UniProt G2QME7)
Assay: EMSA
Conditions: 100 ng probe, 0-0.8 ug protein with 100 ng probe, 25 C, 30 min, binding buffer (composition and pH not given; cites earlier work), recombinant protein, residues 126-190, protein details: N-terminal Strep II, C-terminal His (pET-51b), probe letters rebuilt from the primers and the genome
[1] = high affinity, shift from 0.1 ug protein

Row | Sequence | binding result [1] | binding result (weak binding) | further results
1 | GGGGTAAGGTCAGTAGCAGGCATTAGATTTAGGGAGATGCGAGAATAGCATTGACAGACACCAAAGCGCTGGAAGCTGATCTGCGCGGATGTGGGCGAACGGGTGCCACAGTCAACTCACTGCACGGAGGATGAAGCACCAGCAGCGCATGTCGGGGTTAAGGGAAGGGGAAGGGGGGTGAAGGGGGGTGAAGGAGGGGGAAGGGGGGAGGGGTGTCTGGATGGACGAGGGACAGCGGACCGGCCGGCAAGGGGGGGCGCGGGAGAAGGAGAACGTGGAGGGCAGGGAAGAGGGAACCATCAACGTACGGGATACGGGGTCGGATGGCAAGAGAGCGCTTGGCCAGTCCTC (double strand) [xyr1-P2] | binds | – | –
2 | ACAGACGGATTGATGCCATGCGTGATCCGAAAGCAAGCGCGGGAAGAGCCATGCTAAATATGGCGCCTCAACGCGTAATCCCGCTCGCCTAAGGTATTTGTATCGTAGCAGCGGCGCCTGCCACGACTTGGAAGATACGGTTGAAATCGGGGGGTGGGTGCCAGCCAATGTGGTATCTCTGTCTCTCTTGTGTTTTCTCCAGGTTTCCTGGCTTATCCACTTCTGAAAAGGTTGATGTCTTCTTCTTGGATCGCTGTGATCCTGAATCTATGGGAAGTTGAAGGAGACTCGAATGCGGCCGTAAATAATTACCAACGAGACAGGATGGTTAATACGGGCTGGTTAACCCAG (double strand) [xyn1-P3] | – | – | binding result (no retardation up to 0.8 ug protein): no binding
3 | GTGGGAAAATCTTCTTGCGCGAGAGATTAAAGAGGCTAGGAAGCTGGGGTGCATGCTGCAGGATCGGCATTGGGTCAGTGGGACGATGCAGCTGCGGGATGGCATAGCGGTCCGGCATGAGCCCGACGTTGCTGTAAGCAGCAATCGAGTGGCCAGAGGCATGCTGGGCACGCACCAAAGCCGGGCCGGACTGCCCGTTATTGATTGGGCCGGCCAAATGTCCCGTCGTGGCAGGTGGGCCAGCCGTTTCAACCCCGCAAAACCGCTGGTCAAGGTCGACATACCAAGATCTGTAAAGGGTCTTGTGATTGTCGGGTTCGGATCTCCTCATCCCGGATGTCACGCTGAGCG (double strand) [bgl1-P2] | – | binds more weakly | –
4 | GACCGTCCTGGAATCTTCGAGGCTGGTCGGATCTGGCATGGCGCTCACACCGCTGCCGTTGCTGCGATGGAGAGTTGTATTGTCATGGGTGTGGCCCGGAGCGACAACCCAACCCGGTTCTGCGTCGGAGGGTCCTCCGTCCATGGACAAAATGGGTAGGCTAGACGACGCCAACCCCTCAGGAACCCGGAACTCGGGCCCTTCAGAATCCACTCTCAGCGGTTAGCCCCGCTGACGAACCCCTTAATCCCGGCCTGTTCGCCACGTGAGACTTTAGCCTGAATACTGCGTGCTACGATTCTGTTGCGGCTTGGCGCCCGAGACTCCAGCGGTGCAAGCCATCGAGAAGAA (double strand) [xyn1-P2] | binds | – | –
5 | ATCATTCGATGGCTGACTGGCACACTCGTCTTGTTTGAGCATCGACGGCCCGCGGCCCGTCTCCCACGGTACGGAACCTCGTTGTACAGTACCTCTCGTAATGATACCCAACACCGGGGCCGAGCGCTGGGAGGGCGGCGTTCCCGAGAAGCCGGGAAGGCGGCTGGCCGGCTGACCTTTGTGACTTGGCGATGGATGCGGCCATGGAGAATGTCCGTCCGAAGCGACGCGACAATTAGCCTGGCTACCATCGATATAAATTGGGTGATTCCCAGCTCTTGATGGGCGTGTCTTCTGCCTGGCAGCCCTCGTCTTCAGATCAAGCAACTGTGTGCTGATCCTCTTCCGCC (double strand) [cbh1-P1] | – | binds more weakly | –
6 | ACTTGGCGAACGGAGATTTCCAGGACGAAAGTCGGAACATCTCCATCCGCGGCCAACCTGAACACTTTTGTTCGTTTCCGGACCATCGACCCACGAAAACAGTGCGGTTGCTGGCACAGTCAGTACTCACAATGGCGATGGTCCAGCCCGTTCCCGCCCGATGCCCACTTGCAGCGCAACTCTCCTTCGTTCGGCGGCCCGGCGGTGTCTGGCCTATTAGTACGATTTTGGATACCGGCTTGGTCGCCGCCGCGGTTTTTCTTGGCCGATACGGGAATCTCGGTGGTCCCAACTCCACCTGGGCACGCTCTGGTGCCAACATGGAACTTCGGGATGCCGCTCCGGGCACAG (double strand) [egl2-P2] | – | binds more weakly | –

No signal at the amounts used counts as a negative. For at least one entry, the source does not settle the construct or the ends of the probe. Weaker means in comparison with the reference protein, sequence or condition of that experiment.
